These are yes or no findings as the source states them, for the method shown. Some entries that bind do so weakly or less than the wild type. Tags and fused reporters may be left off the sequences shown.
Molecular target: T1, Human GPR116 with a C terminal FLAG tag, stably overexpressed in HEK293A or HEK293T cells (human) (UniProt Q8IZF2)
T1 sequence (looked up): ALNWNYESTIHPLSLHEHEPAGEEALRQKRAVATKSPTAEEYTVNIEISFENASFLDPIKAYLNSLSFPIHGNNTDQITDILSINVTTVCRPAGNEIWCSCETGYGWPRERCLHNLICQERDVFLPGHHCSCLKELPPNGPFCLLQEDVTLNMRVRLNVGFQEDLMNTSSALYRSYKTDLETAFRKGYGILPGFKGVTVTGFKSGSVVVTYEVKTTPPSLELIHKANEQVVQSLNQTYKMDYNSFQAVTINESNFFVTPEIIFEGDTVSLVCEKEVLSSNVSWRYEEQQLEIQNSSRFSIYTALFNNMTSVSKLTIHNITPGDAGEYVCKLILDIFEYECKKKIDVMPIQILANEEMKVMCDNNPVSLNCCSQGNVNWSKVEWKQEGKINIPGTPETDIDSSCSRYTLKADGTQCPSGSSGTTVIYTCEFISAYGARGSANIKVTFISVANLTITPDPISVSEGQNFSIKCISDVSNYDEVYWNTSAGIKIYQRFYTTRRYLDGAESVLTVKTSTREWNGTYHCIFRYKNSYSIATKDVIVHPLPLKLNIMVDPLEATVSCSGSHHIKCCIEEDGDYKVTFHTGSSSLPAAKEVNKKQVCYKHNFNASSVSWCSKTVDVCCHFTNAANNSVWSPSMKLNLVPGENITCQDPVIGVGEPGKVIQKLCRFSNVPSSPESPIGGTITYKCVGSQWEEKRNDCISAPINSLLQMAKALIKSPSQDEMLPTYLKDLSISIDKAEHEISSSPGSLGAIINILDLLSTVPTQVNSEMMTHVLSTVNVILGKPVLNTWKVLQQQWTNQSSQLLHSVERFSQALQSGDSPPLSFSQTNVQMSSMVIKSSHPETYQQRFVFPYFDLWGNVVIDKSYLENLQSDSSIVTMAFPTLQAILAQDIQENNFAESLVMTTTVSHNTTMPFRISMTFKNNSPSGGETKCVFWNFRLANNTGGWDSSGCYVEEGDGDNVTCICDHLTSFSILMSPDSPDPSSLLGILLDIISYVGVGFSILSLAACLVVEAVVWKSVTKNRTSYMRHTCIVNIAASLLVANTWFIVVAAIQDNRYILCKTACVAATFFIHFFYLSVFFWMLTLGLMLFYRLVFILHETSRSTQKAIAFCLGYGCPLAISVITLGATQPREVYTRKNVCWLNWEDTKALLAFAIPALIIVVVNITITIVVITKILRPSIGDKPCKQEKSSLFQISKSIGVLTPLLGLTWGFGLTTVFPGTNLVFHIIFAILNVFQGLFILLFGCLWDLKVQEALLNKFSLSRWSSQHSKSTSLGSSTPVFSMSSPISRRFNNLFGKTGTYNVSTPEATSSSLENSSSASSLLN
Test: flow cytometry competition on HEK293T GPR116 OE cells; excess untagged sFNDC4 against FcsFNDC4

- binding: binds
B1: Untagged FNDC4 (aa40-160, UniProtKB Q3TR08 Mouse FNDC4), non Fc fused (ligand, UniProt Q3TR08 40-160, looked up)
chain: ADRPPSPVNVTVTHLRANSATVSWDVPEGNIVIGYSISQQRQNGPGQRVIREVNTTTRACALWGLAEDSDYTVQVRSIGLRGESPPGPRVHFRTLKGSDRLPSNSSSPGDITVEGLDGERP

Reference: US20250282849A1
